Among all 400,000 compounds or so, about 13,000 (3.2%) were called active. The inconclusive results got no clear call from the source; some entries with a clear call stand among them for comparison. Calls follow the shape of the dose curve; as a rule, active = well fitted cell-killing curve with a large enough effect; inconclusive = small, poorly fitted or top-dose-only effect, or effect the other way; inactive = flat fitted curve, though single readings scatter. Where the call is inconclusive, the potency comes from a doubtful curve fit.
test: qHTS assay for MDR1-selective chemotherapeutics: Primary screen using the drug-selected MDR subline cells KB-V1; conditions: KB-V1 MDR cells viability, CellTiter-Glo, 72 h; activity change, negative = cytotoxicity: at 46.1 µM (top of the series); also: nearly all actives have a fitted effect of over 60% in size
In short: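 Luminescent ATP read-out (CellTiter-Glo, 10 min) measures survival of drug-selected KB-V1 MDR cells after 72 h, 37 degrees C compound exposure. Medium: phenol-red-free DMEM, 10% FBS. Values from fitted concentration-response curves.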
% is scaled to controls: 0 for no effect and ±100 for the full control effect; potency is read from the fitted curve at half-maximal effect.

SMILES | Potency | activity change, negative = cytotoxicity
CSc1ccccc1NC(=O)C1(C)CCN1C(=O)CCC1CCCC1 (stereo unspecified) | inconclusive: 7.31 µM [cytotoxic, partial curve] | –
CCn1c(=O)c([N+](=O)[O-])c(NCC(O)c2ccccc2)c2ccccc21 (stereo unspecified) | inconclusive: 18.4 µM [cytotoxic, partial curve] | –
N#CCSc1nnc2sc3ccccc3n12 | – | inactive: -11.6%
COc1ccc(NC(=O)CCCOc2ccc(C(C)=O)cc2)cc1S(=O)(=O)N1CCCCC1 | inconclusive: 29.1 µM [cytotoxic, single point] | –
Cc1ccc(S(=O)(=O)c2nc(S(C)(=O)=O)sc2N2CCCCC2C)cc1 (stereo unspecified) | inconclusive: 1.46 µM [cytotoxic, full curve, poor fit] | –
Cc1c2cnn(CC(=O)NCCN3CCOCC3)c(=O)c2c(C)n1Cc1ccccc1F | inconclusive: 29.1 µM [rising, single point] | –
COc1ccccc1Nc1sc(C(=O)c2ccc(C)cc2C)c(N)c1S(=O)(=O)c1ccccc1 | inconclusive: 4.61 µM [cytotoxic, full curve] | –
O=C(c1cccs1)N(C(=O)c1cccs1)c1ccc(Br)cn1 | inconclusive: 29.1 µM [cytotoxic, single point] | –
CCN(CC)c1ncnc2c1ncn2[C@H]1CN(Cc2ccco2)C[C@@H](CO)O1 | – | inactive: -1.16%
Cc1ccc(OCCNC(=O)c2cccc(S(=O)(=O)N3CCN(Cc4ccccc4)CC3)c2)cc1 | inconclusive: 29.1 µM [cytotoxic, single point] | –
Cc1c(C(=O)N2CCN(Cc3ccc4c(c3)OCO4)CC2)sc2ncnc(N3CCN(c4ccccc4F)CC3)c12 | – | inactive: 4.18%
CSCC[C@H](NS(=O)(=O)c1ccc(C)cc1)C(=O)N1CCC(C(=O)N[C@H](C(=O)O)c2ccccc2)CC1 | – | inactive: -1.76%
O=C(CNC(=O)c1cccs1)N=Nc1c(O)[nH]c2ccc(Br)cc12 | – | inconclusive: 39.6%
Cc1ccc(Cl)cc1NC(=O)COC(=O)C12CC3CC(CC(C3)C1)C2 | inactive | –
CC1CC(C)CN(CC(=O)c2cccs2)C1 (stereo unspecified) | inconclusive: 25.9 µM [rising, single point] | –
CCn1c(SCC(=O)N2CCCCC2C)nc2ccsc2c1=O (stereo unspecified) | – | inactive: -20.6%
C=CCNC(=S)NNC(=O)c1cccn(Cc2ccc(Cl)cc2Cl)c1=O | active: 23.1 µM | –
CCC(C(=O)N/N=C/c1cccnc1)c1ccccc1 (stereo unspecified) | inconclusive: 0.0046 µM [rising, full curve, poor fit] | –
CC(CN1CCN(Cc2ccccc2)CC1)c1ccccc1 (stereo unspecified) | – | inactive: -0.607%
O=C(NC(=S)N1CCCC1)c1ccccc1 | – | inactive: -2.61%
Cc1ccc(NC2Sc3ccccc3NC2=O)cc1Cl (stereo unspecified) | inconclusive: 20.6 µM [cytotoxic, single point] | –
CCc1ccc(NC(=O)C2CCN(S(=O)(=O)c3ccc4c(c3)N(C(C)=O)CCO4)CC2)cc1 | – | inactive: 17.3%
CCC(C)(C)NC(=O)c1sccc1Oc1ccc(F)cc1[N+](=O)[O-] | inconclusive: 11.6 µM [cytotoxic, partial curve] | –
CCCNC(=O)C(Cc1ccc(I)cc1)NC(=O)c1ccc(C#N)cc1 (stereo unspecified) | – | inactive: 12.7%

Part of the list above in order of SMILES length, falling.
SMILES | Potency | activity change, negative = cytotoxicity
Cc1ccc(OCCNC(=O)c2cccc(S(=O)(=O)N3CCN(Cc4ccccc4)CC3)c2)cc1 | inconclusive: 29.1 µM [cytotoxic, single point] | –
CCn1c(=O)c([N+](=O)[O-])c(NCC(O)c2ccccc2)c2ccccc21 (stereo unspecified) | inconclusive: 18.4 µM [cytotoxic, partial curve] | –
CCCNC(=O)C(Cc1ccc(I)cc1)NC(=O)c1ccc(C#N)cc1 (stereo unspecified) | – | inactive: 12.7%
CCn1c(SCC(=O)N2CCCCC2C)nc2ccsc2c1=O (stereo unspecified) | – | inactive: -20.6%
CC(CN1CCN(Cc2ccccc2)CC1)c1ccccc1 (stereo unspecified) | – | inactive: -0.607%

(cont.)

SMILES | Potency | activity change, negative = cytotoxicity
Cn1nc(C(=O)OCc2ccc(Br)cc2F)c2ccccc2c1=O | inconclusive: 29.1 µM [rising, single point] | –
O=C(Cn1ccc2cc(S(=O)(=O)N3CCCCC3)ccc21)NCCc1ccccc1Cl | – | inactive: -1.35%
COc1ccccc1NC(=O)Cn1c(=O)n(Cc2ccccc2)c(=O)c2c1c1cc(C)ccc1n2C | inconclusive: 29.1 µM [rising, partial curve, poor fit] | –
COc1ccc(NC(=O)CCCC2CCCCC2)cc1S(=O)(=O)N1CCCCC1 | active: 9.2 µM | –
Cc1ccccc1NC(=O)Cn1cc(C(=O)c2cccs2)c2ccccc21 | – | inactive: -23.2%
OCC[C@H]1C[C@H](O)[C@@H](O)[C@]2(OCCc3ccccc32)O1 | inconclusive: 23.1 µM [rising, single point] | –
Cc1cc(NC(=O)Nc2ccc(Cl)cc2)n(C)n1 | inconclusive: 23.1 µM [rising, partial curve, poor fit] | –
CCn1c(N2CCN(C(=S)NC)CC2)nc2ccccc21 | – | inactive: -21.4%
Cc1ccsc1CN1CCc2nc(Nc3ccccc3)ncc2C1 | – | inactive: -19.9%
Cc1ccc(SCn2nnc3ccccc3c2=O)c(C)c1 | inconclusive: 18.4 µM [cytotoxic, partial curve, poor fit] | –
COc1ccccc1NC(=S)NC(=O)c1ccc(-c2ccc(Cl)cc2)o1 | – | inactive: -11.7%
O=C(COC(=O)c1ccccc1Cc1ccccc1)Nc1ccc(SC(F)F)cc1 | inconclusive: 20.6 µM [cytotoxic, single point] | –
Cc1cc(C)cc(NC(=O)CSc2nnnn2-c2cccnc2)c1 | inconclusive: 29.1 µM [cytotoxic, single point] | –
CCCCC(=O)OC1=C(C(=O)c2ccccc2)N(CCC)S(=O)(=O)c2ccccc21 | inconclusive: 7.31 µM [cytotoxic, partial curve] | –
COc1ccccc1CNC(=O)C[C@H]1CC[C@@H]2[C@H](COC[C@H](O)CN2Cc2ccc3c(c2)OCO3)O1 | inconclusive: 18.4 µM [cytotoxic, single point] | –
COc1cc2c(cc1OC)C(c1cccs1)N(C(=O)c1ccncc1)CC2 (stereo unspecified) | inconclusive: 23.1 µM [cytotoxic, single point] | –
Cc1ccc(-c2cnc3cc(C)nn3c2)cc1 | inconclusive: 20.6 µM [cytotoxic, single point] | –
CCc1nnc(NC(=O)CCC(=O)N2CCN(CCOc3ccc(C)cc3)CC2)s1 | inconclusive: 20.6 µM [cytotoxic, single point] | –
COc1cc2c(cc1OC)n(Cc1cccc(C(F)(F)F)c1)c(=O)n1nc(-c3ccccc3)nc21 | inconclusive: 29.1 µM [rising, single point] | –
O=C(C[n+]1cccc(Br)c1)c1ccc2ccccc2c1 | – | inconclusive: -11.3%
Cc1cc(C(=O)NC(C)c2ccccc2)c2cc(F)ccc2n1 (stereo unspecified) | – | inactive: 13.1%
CCc1ccccc1NC(=O)CN1CCN(C(=O)CNC(=O)c2ccc(-c3ccccc3)cc2)CC1 | inconclusive: 29.1 µM [cytotoxic, single point] | –
CC(C)(C)c1ccc(OCCOCCn2cnc3ccccc3c2=O)cc1 | inconclusive: 16.4 µM [cytotoxic, single point] | –
Cc1ccc(CSC2=NCCN2C(=O)C2CC2)cc1 | – | inactive: 0%

SMILES | Potency | activity change, negative = cytotoxicity
Cc1cc(C(=O)CN2C(=O)C(=O)N(Cc3ccccc3)C2=O)c(C)n1-c1ccccc1F | – | inactive: 0%
COc1ccc(COCC(O)CN2CCC(CN3C(=O)c4cccc5cccc(c45)C3=O)CC2)cc1OC (stereo unspecified) | inconclusive: 14.6 µM [cytotoxic, partial curve] | –
COc1ccccc1CNC(=O)c1cccnc1 | inconclusive: 23.1 µM [rising, single point] | –
CCOc1ccc(C(=O)Nc2cccc(-c3nc4cccnc4o3)c2)cc1Cl | inconclusive: 23.1 µM [cytotoxic, single point] | –
Cc1cccc(N2CCN(C(=O)c3ccc4nc(N5CCCCC5)sc4c3)CC2)c1C | inconclusive: 5.17 µM [cytotoxic, full curve, poor fit] | –
COc1cccc(NC(=O)CCNS(=O)(=O)c2ccc3c(c2)oc(=O)n3C)c1 | inconclusive: 29.1 µM [rising, single point] | –
CN(CCOc1ccccc1)C(=O)c1cc(S(=O)(=O)N2CCOCC2)c(Cl)cc1Cl | inconclusive: 18.4 µM [cytotoxic, single point] | –
Cc1nn(C)c(Cl)c1C(=O)NCC(=O)O | inconclusive: 2.91 µM [rising, full curve, poor fit] | –
CCn1c(COc2ccc(Cl)cc2)nnc1SCc1nc2ccccc2[nH]1 | inconclusive: 18.4 µM [cytotoxic, partial curve, poor fit] | –
CCc1ccc(C(CNc2nc(C(F)(F)F)nc3ccccc23)N(C)C)cc1 (stereo unspecified) | active: 16.4 µM | –
Brc1ccc2nc(-c3c[nH]c4ccccc34)cn2c1 | – | inactive: 0%
CCOc1ccc(NS(=O)(=O)c2cc3c(cc2Cl)NC(=O)CO3)cc1 | inconclusive: 7.31 µM [rising, partial curve, poor fit] | –
CCOC(=O)/C=c1/s/c(=C/c2ccc3cc(OC)ccc3c2)c(=O)n1CC(=O)NCC1CCCO1 (stereo unspecified) | – | inactive: -10%
Cc1ccc(NC(=S)c2ccncc2)c(C)c1 | inconclusive: 11.6 µM [cytotoxic, partial curve, poor fit] | –
COc1ccccc1-c1nnc(SCC(=O)N2CCCC2)o1 | – | inactive: -10.1%
CCc1ccccc1NC(=O)C(=O)NCCCN1CCOCC1 | inconclusive: 0.164 µM [cytotoxic, full curve] | –
O=[N+]([O-])c1c(C(Cl)Cl)nn(-c2ccc(Cl)cc2)c1N1CCCCC1 | inconclusive: 20.6 µM [cytotoxic, partial curve, poor fit] | –
COCCCn1c(SCC(=O)Nc2ccc(C(C)=O)cc2)nc2ccccc2c1=O | inconclusive: 32.6 µM [cytotoxic, single point] | –
CCn1cc(C(=O)N2CCN(c3ccc(C)cc3)C(C)C2)c(=O)c2cc(S(=O)(=O)N3CCCC3)ccc21 (stereo unspecified) | – | inactive: 2.08%
CN(C)S(=O)(=O)c1cccc(COc2cccnc2[N+](=O)[O-])c1 | inconclusive: 29.1 µM [cytotoxic, single point] | –
N#Cc1ccccc1NC(=O)CNc1ccc(Cl)c(C(F)(F)F)c1 | inconclusive: 14.6 µM [cytotoxic, partial curve] | –
O=C(NCCN1CCCCCC1)C1CCN(S(=O)(=O)N2CCOCC2)CC1 | – | inactive: 8.56%
CCOC(=O)C1=CCN(S(=O)(=O)c2ccccc2Br)C1c1cccc(F)c1 (stereo unspecified) | inconclusive: 18.4 µM [cytotoxic, single point] | –

Reference: PubChem BioAssay AID1347076 (National Center for Advancing Translational Sciences (NCATS), 2019)
